These are yes or no findings as the source states them, for the method shown.

For the test, the target named is VldE^MT3 domain (Spr1875^MT3), residues 266-380 (Streptococcus pneumoniae) (UniProt Q8DN78). Description: AUC; sedimentation velocity, 48 krpm, 20 °C, 20 mM Tris-HCl pH 7.4, 150 mM NaCl, protein at 0.05 μM as printed, absorbance at 280 nm; single peak at s20,w 1.797 S (100%); both purified.

With “VldE^MT3 domain (Spr1875^MT3), residues 266-380 (from UniProt Q8DN78 266-380) (domain or fragment)”, the binding entry is “no binding (tested: 0.05 μM)”.

These data come from PMC11667670.
